Laboratory results as given in publication PMC4750992, “A New Mutation, hap1-2, Reveals a C Terminal Domain Function in AtMago Protein and Its Biological Effects in Male Gametophyte Development in Arabidopsis thaliana” (PLoS ONE, 2016).

Biological target: T1, MBP-AtMago (Arabidopsis thaliana) (UniProt O23676)
T1 sequence: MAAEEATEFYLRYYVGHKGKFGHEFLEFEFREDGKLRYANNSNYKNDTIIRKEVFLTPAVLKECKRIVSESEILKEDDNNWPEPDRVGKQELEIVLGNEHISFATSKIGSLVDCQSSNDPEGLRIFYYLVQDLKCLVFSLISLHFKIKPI
Experiment: pull-down; MBP, MBP-AtMago or MBP-AtMagoΔC kept on amylose beads; purified His-Y14 or His-eIF4AIII diluted in Column Buffer (200 mM NaCl, 1 mM EDTA, 20 mM Tris-HCl, pH 7.4), 300 μL, on ice 1 hour; three washes; Western blot with anti-His or anti-MBP; both purified

binding: binds
Substance: His-AtY14 (Arabidopsis thaliana)

Results are given in words; binding and its absence hold for the method and conditions named. A result given as binding can be weak or reduced; the word gives no strength. Sequences can lack the tags named with a protein.
